Record: PubChem BioAssay AID1053208 (Peter MacCallum Cancer Centre, 2014)

Test: 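Find knock-downs that sensitise mouse osteosarcoma cells to doxorubicin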 (primary screen)
System: mouse osteosarcoma cells, early-passage culture from an engineered mouse model of fibroblastic bone tumour
Reagents: siRNA pool against mouse genes, 40 nM
Duration: about 120 h (48 h before drug, then 72 h with drug)
Conditions: doxorubicin 100 nM for 72 h, roughly 30-40% inhibitory dose
Measurement: 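Luminescent ATP signal taken as viability with or without 100 nM doxorubicin for 72 h; mean of two wells set against non-targeting siRNA and turned into robust z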
Direction: viability z-score with doxorubicin: higher = more viable cells under doxorubicin; viability z-score without drug: higher = more viable cells with knock-down alone
Rule for the call: 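a pool counts as active when its viability z-score with doxorubicin is -2 or below and its z-score without drug lies between -2 and 2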
In all, the deposit lists about 17,000 reagents; shown is an unselected part. Over the whole deposit, 788 (4.7%) got an active call. 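Calls rest on z-score classes alone; an extra cut-off of viability at most 70% of control was not applied to them.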 Entries without a mark were called inactive. Not all columns of the deposit are shown. No sequences are given here.

target gene	combined z-score class	viability z-score with doxorubicin	viability z-score without drug
Cenpi	no change with or without drug	-0.67	-0.34
Shisa7	low cell count with doxorubicin only (active)	-2.47	0.51
Fgf4	no change with or without drug	-1.12	-0.51
Timm9	no change with or without drug	1.57	0.51
Or2g1	no change with or without drug	0.45	1.18
Pum1	no change with or without drug	-0.11	0.84
Sfswap	no change with or without drug	-0.45	-1.52

Next part, starting with the last 2 of the part before.
target gene	combined z-score class	viability z-score with doxorubicin	viability z-score without drug
Pum1	no change with or without drug	-0.11	0.84
Sfswap	no change with or without drug	-0.45	-1.52
Sec62	no change with or without drug	-0.9	-0.17
Polg2	no change with or without drug	0.11	-0.84
Axin2	no change with or without drug	-0.22	0.67
Sik1	high cell count with doxorubicin only	2.02	1.18
Zfp51	no change with or without drug	0.22	0.84
Pgcka1	no change with or without drug	1.8	-0.34
Dnajc5	no change with or without drug	-1.35	1.52
Pafah1b3	no change with or without drug	0.67	-0.84
Tmem255a	no change with or without drug	0.67	0.17
Or5g26	no change with or without drug	-1.12	-1.35
Fut2	no change with or without drug	0.67	0.34
Pfdn6	no change with or without drug	1.01	0.51
Ly6d	no change with or without drug	-0.79	-0.51
